Results: PMC8416741
No constants are given. Whether binding was seen depends on the method and setting. Binding seen in cells or lysates may run through a third protein. Some entries that bind do so weakly or less than the wild type.

By UniProt entry, the sequences of proteins in these tests, tags left out.
UniProt P51665: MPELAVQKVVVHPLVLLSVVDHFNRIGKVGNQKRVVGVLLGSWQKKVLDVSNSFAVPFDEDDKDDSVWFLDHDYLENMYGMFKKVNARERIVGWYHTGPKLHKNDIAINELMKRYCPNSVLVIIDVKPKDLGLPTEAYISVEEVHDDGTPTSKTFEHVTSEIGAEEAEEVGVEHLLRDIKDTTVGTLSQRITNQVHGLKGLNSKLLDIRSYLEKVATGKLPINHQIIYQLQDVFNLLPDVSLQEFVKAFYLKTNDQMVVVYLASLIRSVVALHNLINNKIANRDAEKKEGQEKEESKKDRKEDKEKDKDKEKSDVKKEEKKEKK
UniProt P54727: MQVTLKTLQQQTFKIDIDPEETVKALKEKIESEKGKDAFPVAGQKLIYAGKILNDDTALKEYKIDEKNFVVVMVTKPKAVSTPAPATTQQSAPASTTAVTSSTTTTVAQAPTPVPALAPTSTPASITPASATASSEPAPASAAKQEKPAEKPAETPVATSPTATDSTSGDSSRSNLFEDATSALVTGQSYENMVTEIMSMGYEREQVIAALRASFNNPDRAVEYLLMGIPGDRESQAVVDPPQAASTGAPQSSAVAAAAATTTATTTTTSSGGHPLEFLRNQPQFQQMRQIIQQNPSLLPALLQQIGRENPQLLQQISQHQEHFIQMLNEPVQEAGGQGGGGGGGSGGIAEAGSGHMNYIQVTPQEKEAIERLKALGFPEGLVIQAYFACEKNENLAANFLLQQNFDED

Target: proteasome 26S subunit, non-ATPase 7 (PSMD7) (human (endogenous in AGS)) (UniProt P51665)
Experiment: co-IP; GC (AGS) cell lysate in IP buffer with 0.5% NP40; 3 ug anti-PSMD7 and Protein G Sepharose overnight; RAD23B in the precipitate detected by Western blot

- binding: binds
Substance: RAD23 homolog B (RAD23B) (from UniProt P54727 1-409)
